PubChem BioAssay AID686943 – Drosophila RNAi Screening Center – 2013
In all, the deposit lists about 23,000 reagents; shown is an unselected part of those with a known target gene and a result. 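Extra replicates exist only for a retested subset of genes; insulin dose and duration not given; both raised and lowered dpERK matter.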 Reagents against one gene are numbered here. Names joined by + are all predicted targets of the reagent. The record does not give: the amount of reagent, the time to read-out.

Screen: 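Fly genes whose loss alters ERK activation after insulin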 (primary screen)
Cell system: Drosophila S2R+ haemocyte-like cells expressing YFP-tagged ERK (Rolled)
Knock-down reagent: long dsRNA against Drosophila genes
Challenge: insulin stimulation versus unstimulated cells; dose and duration not given
Detection: 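Antibody staining for doubly phosphorylated ERK divided by ERK-YFP signal, as plate z-scores, in insulin-treated and untreated cells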
Direction: replicate 1, z-score of dpERK with insulin and replicate 2, z-score of dpERK with insulin: higher = more active ERK per ERK-YFP after insulin; replicate 1, z-score of dpERK under basal conditions: higher = more basal active ERK per ERK-YFP; replicate 1, z-score of ERK-YFP with insulin: higher = more YFP-tagged ERK signal

gene	reagent	replicate 1, z-score of dpERK with insulin	replicate 2, z-score of dpERK with insulin	replicate 1, z-score of dpERK under basal conditions	replicate 1, z-score of ERK-YFP with insulin
CG11360	1	0.42	0.87	-0.89	-0.56
CG11360	2	0.69	1.52	-0.12	0.02
CG8136	1	-0.11	-0.24	-0.38	-0.21
da	1	-0.33	-0.63	-0.17	0.24
CG6153	1	0.64	0.13	0.13	-0.76
GstT3	1	-0.14	0.12	-0.53	-0.24
B4	1	5.95	6.08	-1.17	0.27
B4	2	0.72	-0.83	-0.23	-0.71
Syt12	1	-0.45	0.06	-0.03	0.25
Cbp20	1	0.41	-0.09	-1.47	5.3
yki	1	0.12	0.05	-0.1	-0.23
Slh	1	-0.35	-0.1	-0.02	0.14
Slh	2	1.94	2.57	0.36	-0.74
CG14949	1	0.37	0.54	0.02	0.21
Dh31	1	0.12	2.85	1.3	0.88
CG3662	1	0.48	0.2	0.76	-2.65
CG43103	1	0.65	0.3	1.55	0.38
CG18335	1	-0.77	0.38	0.05	0.56
CG3419 (retired record)	1	-0.01	-0.52	0.29	0.2
CG3419 (retired record)	2	-0.16	-0.54	-0.61	0.18
bin3	1	-2.55	-1.41	0.1	1.53
Usp14	1	0.8	-0.01	0.49	0.85
so	1	-0.06	-3.78	1.85	0.72
CASK	1	-0.14	-0.39	0.12	-0.16
CASK	2	0.68	0.76	0.03	0
CASK	3	-0.35	0.13	0.72	0.42
CASK	4	0.53	0.04	-0.58	-0.29
Cep97	1	-0.42	-0.43	-0.24	0.11
CG7276	1	0.04	-0.31	-0.68	-0.25
CG9445	1	-0.28	-0.13	-0.31	0.06
GluProRS	1	0.29	0.4	-0.3	0.17
CG12057	1	0.3	0.19	0.76	-0.13
tpr	1	-0.65	-0.15	0.85	0.54
CG2321	1	-0.04	-0.32	-0.84	-2.73
tral	1	-0.94	0.04	-1.07	-2.05
lark	1	-0.46	0.52	0.11	1.12
Ir41a	1	-1.45	-0.89	0.74	0.71
Ir41a	2	0.36	-0.05	1.72	-0.33
Obp56c	1	0.78	-1.27	-0.07	0.24
Obp56c	2	1.15	0.26	0.95	-1.38
CG5068	1	-0.18	-0.36	-0.38	-0.29
CG10274	1	-0.49	1.1	0.4	0.33
Sry-delta	1	-0.61	1.68	1.7	0.86
CG14631	1	0.41	-0.08	0.05	0.22
CG14631	2	0.12	-0.14	-0.19	-0.43
CG17658	1	-0.67	-0.08	0.42	0.22
Jhbp16	1	0.34	-0.23	0.1	-0.44
CG14107	1	1.76	1.6	-1.16	-3.43
rush	1	1.23	0.07	-0.75	1
CG14096	1	0.43	-0.47	0.63	0.14
CG11373	1	1.05	0.89	-0.08	0.25
yellow-c + CIAPIN1	1	0.21	0.23	0.52	-0.14
Lon	1	0.06	-0.1	-2.67	-0.55
slou	1	1	-0.1	1.04	-0.2
Obp22a	1	0.12	0.19	0.63	-0.79
dpr9	1	-1.03	-0.78	-0.47	2.16
dpr9	2	-0.78	-1.63	-0.43	-0.05
dpr9	3	0.69	-1.55	-0.33	1.46
